Data as given in article PMC10933169, “Potent anticancer activity of (Z)-3-hexenyl-β-D-glucopyranoside in pancreatic cancer cells” (Naunyn-Schmiedeberg's Archives of Pharmacology, 2023).
Read-outs that look alike come from different tables or passages of the source.

How the values were obtained:
[1] = test system: Bcl-2 gene expression in Panc1 cells; experiment: SYBR Green RT-PCR gene expression, Bcl-2; assay type: cell-based; settings: 48 h, (Z)-3-hexenyl-β-D-glucopyranoside at 10 µM, control 1
Description: (§1) The effects of 10 µM of (Z)-3-hexenyl-β-D-glucopyranoside on the mRNA expression of caspase3, bax, and Bcl-2 genes were investigated using the reverse transcription-polymerase […] technique. After a 48-hour incubation of (Z)-3-hexenyl-β-D-glucopyranoside in Panc1 (pancreatic carcinoma) cells, mRNA isolation of the selected proteins was performed using the RN easy extraction kit (Qiagen, Hilden, Germany), following previously described methods (Janicke et al. [1998]). For real-time quantitative PCR of the RNA templates, a one-step RT-PCR kit with SYBR® Green (Bio-Rad SYBR Green PCR MMX, Hercules, California, USA) was added to a 25 μL 2X SYBR® Green RT-PCR reaction mix (Bio-Rad, Hercules, California, USA). The reaction mix contained 2X reaction buffer with 0.4 mM of each dNTP, magnesium chloride, iTaq DNA polymerase, 20 nM fluorescein SYBR® Green I dye, stabilizers, 11 μL nuclease-free water, 1.5 μL reverse primer (10 μM), 1.5 μL forward primer (10 μM), 1 μL iScript reverse transcriptase, and RNA template (1 pg to 100 ng total RNA). The cDNA synthesis and PCR amplifications were performed in the same tube using Rotor-Gene RT-PCR (Qiagen, Hilden, Germany) software 1.7 (Abed et al. [2021]). The primers used in the RT-PCR reaction were obtained from Corbett Life Science Division (Reg. No. QEC21313), Corbett Research, Mortlake, Australia. […]

[2] = test system: HepG2 (hepatocellular carcinoma) cells; experiment: MTT cytotoxicity assay, HepG2; settings: Homo sapiens, HepG2, 48 h, read-out: Cytotoxicity IC50 HepG2
Description: (§2) The cell lines PANC-1 (pancreatic carcinoma), MCF7 (breast carcinoma), HepG2 (hepatocellular carcinoma), and WI-38 (normal lung fibroblast cells) were obtained from the American Type Culture Collection (ATCC) located in Manassas, Virginia, United States. These cell lines were cultured in DMEM (Invitrogen, Life Technologies, Rockville, MD, USA) medium supplemented with 10% FBS (Fetal Bovine Serum, Hyclone, Thermo Fisher Scientific, Waltham, MA, USA) and 1% penicillin (Sigma-Aldrich, Louis, MO, USA). The cells were maintained at 37°C in a 5% CO2 and 95% humidity environment for a maximum period of two weeks to ensure their viability for further experimentation. […]
(§3) The cultivated cells were seeded in 96-well plates at a concentration of 1 × 10^4 cells/100 μL per well (Naik et al. [2014]). […] The viability of the cancer cells was determined by measuring the amount of formazan formed by viable cells. […] The intensity of the produced colour was measured using an ELISA plate reader (Bio-Tek EL 800, Agilent technology, Santa Clara, CA, USA) at wavelength of 570 nm. The percent of cells viability was calculated by the following equation: %viability=AA570oftreated-AA570ofblank/AA570ofcontrol-AA570ofblank×100
(§4) AA Average of triplicate absorbances for each sample concentration

[3] = test system: Panc1 (pancreatic carcinoma) cells; experiment: MTT cytotoxicity assay, Panc1
Description: as §2, §3, §4

in vitro = settings: human
Description: as §2, §3, §4

[4] = test system: Casp3 gene expression in Panc1 cells; experiment: SYBR Green RT-PCR gene expression, caspase3; assay type: cell-based; settings: 48 h, (Z)-3-hexenyl-β-D-glucopyranoside at 10 µM, control 1
Description: as §1

[5] = test system: MCF7 (breast carcinoma) cells; experiment: MTT cytotoxicity assay, MCF7; settings: Homo sapiens, MCF7, 48 h, read-out: Cytotoxicity IC50 MCF7
Description: as §2, §3, §4

[6] = test system: Bax gene expression in Panc1 cells; experiment: SYBR Green RT-PCR gene expression, Bax; assay type: cell-based; settings: 48 h, (Z)-3-hexenyl-β-D-glucopyranoside at 10 µM, control 1.436
Description: as §1

For `CN[C@@H]1C[C@H]2O[C@@](C)([C@@H]1OC)n1c3ccccc3c3c4c(c5c6ccccc6n2c5c31)C(=O)NC4` [Staurosporine, reference compound], which “RT-PCR results fold change Bcl-2” value [1] is on record?
Its value is 0.183 fold.

What about the IC50 [2] of the same compound?
The IC50 was 11.7 µM.

What about the IC50 ([3]; Homo sapiens, PANC-1, 48 h, read-out: Cytotoxicity IC50 Panc1) of the same compound?
The IC50 was 15.5 µM.

And the IC50 ([3]; human)?
Its IC50 is 15.7 µM.

What about the IC50 (in vitro) of the same compound?
Its IC50 is 41 µM.

And the “RT-PCR results fold change Casp3” value [4]?
Its value is 6.794 fold.

And the IC50 [5]?
Its IC50 is 20.8 µM.

And the “RT-PCR results fold change Bax” value [6]?
The value was 6.217 fold.
